Library screening results

The chains behind the UniProt entries cited, without tags or fusion partners.
UniProt E9BF75, entry or part of it: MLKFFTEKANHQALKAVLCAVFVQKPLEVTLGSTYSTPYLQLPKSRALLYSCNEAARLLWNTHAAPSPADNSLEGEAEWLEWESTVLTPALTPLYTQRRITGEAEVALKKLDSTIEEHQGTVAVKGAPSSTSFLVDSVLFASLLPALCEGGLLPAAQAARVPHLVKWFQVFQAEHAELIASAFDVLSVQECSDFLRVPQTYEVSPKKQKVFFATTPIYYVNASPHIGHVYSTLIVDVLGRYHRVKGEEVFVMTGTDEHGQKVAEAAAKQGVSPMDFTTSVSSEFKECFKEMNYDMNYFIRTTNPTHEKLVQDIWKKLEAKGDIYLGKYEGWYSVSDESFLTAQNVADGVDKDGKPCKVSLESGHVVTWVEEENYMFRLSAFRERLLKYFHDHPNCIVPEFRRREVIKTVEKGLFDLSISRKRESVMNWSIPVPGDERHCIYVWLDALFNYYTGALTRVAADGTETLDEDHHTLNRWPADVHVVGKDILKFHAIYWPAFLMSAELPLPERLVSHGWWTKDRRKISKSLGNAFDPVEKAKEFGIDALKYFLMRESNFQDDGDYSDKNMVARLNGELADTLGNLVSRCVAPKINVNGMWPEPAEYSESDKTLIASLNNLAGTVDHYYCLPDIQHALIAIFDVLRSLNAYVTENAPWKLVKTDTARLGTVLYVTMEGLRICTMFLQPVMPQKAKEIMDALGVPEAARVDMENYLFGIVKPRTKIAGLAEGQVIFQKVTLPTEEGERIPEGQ

Measurements from “University of Dundee, Small-Polar-MMV Screening Library” (2021), ChEMBL document CHEMBL3988442.

LdMetRS: 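Methionyl-tRNA synthetase (putative), Leishmania donovani (UniProt E9BF75). Primary screen of methionyl-tRNA synthetase; the read-out is not stated. The test concentration is not given. Values are per cent inhibition. About 68,000 compounds were tested under these conditions; 0.035% (about 24) showed 50% or more at least once.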
Mtb heat-shock: 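Assay on Mycobacterium tuberculosis, filed only as a heat shock assay from Cornell; the read-out is not stated. The concentration is filed as 10 mM, unlikely as a test dose, so the dose is not known. Direction is inferred from retests: higher values go with stronger inhibition. Of about 69,000 compounds tested this way, about 930 (1.4%) reached 50% or more in at least one test.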

Results are percentages, as filed.
The record does not define 0% and 100%; most values in the screen are far below 50% and negative numbers occur (in some assays of this library far below -100).
Compounds were drawn at random from those tested, without regard to their results.

For CC(c1cccnc1)N(C)Cc1cc(O)c2cc(F)ccc2n1 (stereo not drawn) the result was LdMetRS: 10.08%; Mtb heat-shock: -28.74%.
For CN1CC[C@@H]2[C@@H]1CCN2Cc1ccc2c(c1)OCO2 the result was LdMetRS: 9.444%.
For CN(CCN1CCOCC1)C(=O)CCc1ccc(C(F)(F)F)cc1 the result was LdMetRS: 5.744%; Mtb heat-shock: 2.233%.
For CN(Cc1cnn(C)c1)C(=O)c1cc2ccccc2c(=O)[nH]1 the result was LdMetRS: 10.34%; Mtb heat-shock: -16.15%.
For CC1CCN(CCNC(=O)C2CCN(C(=O)NC(C)C)CC2)CC1 the result was LdMetRS: 8.696%; Mtb heat-shock: -22.71%.
For Cc1nn(C)c(C)c1OCC(=O)NCc1cccc(CO)c1 the result was LdMetRS: 15.38%; Mtb heat-shock: 9.325%.
For CN(C)c1ncccc1NC(=O)C1CN(Cc2ccccc2)CCO1 (stereo not drawn) the result was LdMetRS: 8.488%; Mtb heat-shock: -19.36%.
For CCn1ncnc1C(NC(=O)CC1CCN(C(C)C)CC1)C1CC1 (stereo not drawn) the result was LdMetRS: 7.063%; Mtb heat-shock: -8.104%.
For O=S(=O)(c1cccnc1)N1CCN(CCn2ccnc2)CC1 the result was LdMetRS: 7.389%; Mtb heat-shock: -25.41%.
For Cc1ccccc1-n1cc(-c2ccnc(N[C@H](CO)C(C)C)n2)cn1 the result was LdMetRS: 11.85%; Mtb heat-shock: -2.92%.
For COc1ccc(-n2cccn2)c(CN2CCC3(CCCNC3)C2)c1 (stereo not drawn) the result was LdMetRS: 13.2%; Mtb heat-shock: -3.059%.
For COCC1c2nnn(CC3CC3)c2CCN1C(=O)CS(C)(=O)=O (stereo not drawn) the result was LdMetRS: 5.842%; Mtb heat-shock: -2.302%.
For Cc1ccc(-c2nc3c([nH]2)CCNC3C(=O)O)c2cccnc12 (stereo not drawn) the result was LdMetRS: 8.38%; Mtb heat-shock: -8.346%.
For CCOCC1CCN(C(=O)C(c2ccc(F)cc2)N(C)C)CC1 (stereo not drawn) the result was LdMetRS: 0.9464%; Mtb heat-shock: -1.003%.
For CN(Cc1ccncc1)C1COC2(CCN(c3ncc(F)cn3)CC2)C1 (stereo not drawn) the result was LdMetRS: 17.52%.
For COc1cc(C2(C(=O)NC3CCC4(CC3)OCCO4)CC2)ccc1C the result was LdMetRS: 13.77%; Mtb heat-shock: 16.41%.
For COC(=O)c1ccc2ccn(CC3CCCCO3)c(=O)c2c1 (stereo not drawn) the result was LdMetRS: 8.696%; Mtb heat-shock: -18.98%.
For Cc1nc(NC(=O)NC2CC(=O)N(C)C2)nn1C (stereo not drawn) the result was LdMetRS: 8.059%; Mtb heat-shock: -14.21%.
For CSCc1nc(C(C)(C)NC(=O)OC(C)(C)C)no1 the result was LdMetRS: 3.902%; Mtb heat-shock: 10.41%.
For O[C@@H]1C[C@@H](c2nc(-c3ccccc3)no2)N(Cc2ccncc2)C1 the result was LdMetRS: 12.7%; Mtb heat-shock: -18.43%.
For C[C@]1(O)CN(Cc2ncc[nH]2)CC[C@@H]1Oc1cccc(F)c1 the result was LdMetRS: 12.94%; Mtb heat-shock: -7.197%.
For O=C(NCCCN1CCCC1=O)Nc1ccc(Br)cc1Cl the result was LdMetRS: 7.054%; Mtb heat-shock: -9.553%.
For O=C(c1cc(=O)[nH][nH]1)N1CCCC2(CCC(=O)N(C3CCCC3)C2)C1 (stereo not drawn) the result was LdMetRS: 9.021%; Mtb heat-shock: 5.18%.
For Cc1csc(C(Cc2ccsc2)NC(=O)CN(C)Cc2ccccn2)n1.Cl (stereo not drawn) the result was Mtb heat-shock: 82.59%.
For Cn1cc(C(=O)N2CCCN(c3cccnn3)CC2)c2ccccc21 the result was LdMetRS: 3.147%; Mtb heat-shock: -34.18%.
For CCn1cncc1CN(Cc1ccc(OC)cc1OC)CC1CCCO1.O=C(O)CC(O)(CC(=O)O)C(=O)O (stereo not drawn) the result was Mtb heat-shock: -14.56%.
For Cc1cc(C)n(Cc2cc(C(=O)N3CCCCC3c3nccs3)n[nH]2)n1 (stereo not drawn) the result was LdMetRS: 3.403%; Mtb heat-shock: -19.75%.
For COc1cccc(CN2CCCC2Cn2nc(C)nc2C)c1 (stereo not drawn) the result was LdMetRS: 10.38%; Mtb heat-shock: 6.852%.
For Cc1noc2ncc(C(=O)N3CCCC3c3ccsc3)cc12 (stereo not drawn) the result was LdMetRS: 8.434%; Mtb heat-shock: 2.636%.
For O=C(O)C(F)(F)F.O=C(O)C(F)(F)F.O=C(O)C(F)(F)F.[H][C@@]12CN(Cc3ccncc3)C[C@]1([H])[C@@H](OC)CCN2Cc1cnn(C)c1 the result was Mtb heat-shock: -34.99%.
For Cc1nn(C)c(Cl)c1C1CCCN1Cc1nnc(C2CC2)n1C (stereo not drawn) the result was LdMetRS: 10.26%; Mtb heat-shock: 7.484%.
For Cc1ccc(C(=O)NCCS(=O)(=O)N2CCSCC2)o1 the result was LdMetRS: 23.08%; Mtb heat-shock: -0.4857%.
For CN(C)C(=O)c1cnn2c1OCCC2 the result was LdMetRS: 15.21%; Mtb heat-shock: 6.95%.
For Cc1cc(NC(=O)CNc2ccc(Br)cc2F)on1 the result was LdMetRS: 10.56%; Mtb heat-shock: -2.674%.
For CCNC(=O)N1CCC(NC(=O)NCCc2ccc(C)cc2C)C1 (stereo not drawn) the result was LdMetRS: 19.22%; Mtb heat-shock: -4.175%.
For CCOCC1CN(Cc2cccs2)Cc2nn(C)cc21 (stereo not drawn) the result was LdMetRS: 0%.
For O=C(c1cn(CCN2CCCCC2)nn1)N1CCSCC1 the result was LdMetRS: 5.128%; Mtb heat-shock: -35.38%.
For CC(=O)N1CCC2(CN(CC3CCCC3)C2)C1 the result was LdMetRS: 6.667%.
For c1ccc(C2CN(CCc3ccncc3)CCO2)cc1 (stereo not drawn) the result was LdMetRS: 16.67%; Mtb heat-shock: -2.434%.
For Cc1cc(N2CCCN(C(C(=O)O)c3cccc(C)c3F)CC2)ccn1 (stereo not drawn) the result was LdMetRS: 8.71%; Mtb heat-shock: -2.631%.

The last 2 entries again:

c1ccc(C2CN(CCc3ccncc3)CCO2)cc1 (stereo not drawn) gave LdMetRS: 16.67%; Mtb heat-shock: -2.434%.
Cc1cc(N2CCCN(C(C(=O)O)c3cccc(C)c3F)CC2)ccn1 (stereo not drawn) gave LdMetRS: 8.71%; Mtb heat-shock: -2.631%.